Laboratory results: PubChem BioAssay AID2685 (National Center for Advancing Translational Sciences (NCATS), 2010)
The other results are listed elsewhere or left out. These are further read-outs of the screen, such as a control signal, another cell line or another target. No call is given for them. The list favours compounds with an active or inconclusive main result. Words in brackets tell the shape of the fitted curve; partial curves, single points and poor fits give uncertain potencies.

Test: qHTS Assay for Lipid Storage Modulators in Drosophila S3 Cells;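 as to cell number change: cells counted by Cell Tracker Red CMTPX staining in the red channel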
Details: BODIPY lipid droplet fluorescence, 18-24 h; for cell number change: measured here: cell count max response, cells fed with added oleic acid
From the text: NIH Molecular Libraries Probe Production Centers Network [MLPCN] NIH Chemical Genomics Center [NCGC] MLPCN Grant: 1 R03 MH085686-01 Assay Submitter (PI): Beller, Mathias; Max-Planck-Institut fur Biophysikalische Chemie NCGC Assay Overview: Storing lipids as a reservoir for energy or the anabolism of elementary metabolites is a common feature of probably all cells and is conserved from bacteria to humans. The universal cellular lipid storage organelle is the so-called lipid storage droplet (LD). Although ubiquitous, LDs share a simple structure composed of a hydrophobic core that harbors the storage lipids, which is shielded by a droplet-specific phospholipid monolayer to which proteins are attached. The current model of LD biogenesis involves an incorporation of the lipid core into the membrane leaflets of the endoplasmic reticulum (ER) followed by a subsequent budding-like maturation of a LD, which ultimately pinches off. Once released, LD volume can increase by localized lipogenesis or fusion of existing droplet. Storage lipids are re-mobilized enzymatically by lipase activity. Lipase regulation in the adipocyte is heavily studied and involves multiple components including catecholamine signaling, the LD-associated proteins Perilipin and comparative gene identification (CGI-58) and at least two lipases named hormone sensitive lipase (HSL) and adipocyte triglyceride lipase (ATGL). LD regulation outside of the adipocyte is poorly understood and only few components are known. However, there is an urgent need to learn more about ectopic fat depots as mislocalized storage of lipids, for example in the liver or muscle, is an eminent health problem associated with insulin resistance or the metabolic syndrome. We developed a laser-scanning cytometer assay to enable 1,536-well screening and combined the results of the small molecules screen with an RNAi database based on lipid storage.
Triacsin C (Sigma-Aldrich T-4540), an inhibitor of long-chain fatty acyl CoA synthetase that blocks synthesis of triglycerides, was used as a positive control for lipid under-storage. A total of 23 nL of compound solution of different concentrations were transferred to the assay plates using a Kalypsys pin tool equipped with a 1,536-pin array containing 10-nL slotted pins (FP1S10, 0.457-mm diameter, 50.8 mm long; V&P Scientific). One microliter of oleic acid (400 uM) was added, and the plate was lidded with stainless steel rubber gasket lined lids containing pinholes. […] Fluorescence was detected by excitation of the fluorophores with a 488-nm laser on an Acumen Explorer (TTP Lab Tech). The total intensity in channel 2 (500-530 nm) reflected lipid droplet accumulation. Cells were detected using channel 3 (575-640 nm) with 5-um width and 100-um depth filters. The ratio of the number of objects in PMT channel 2 over the number of objects in PMT channel 3 was also calculated. Percent activity was computed relative to an internal control (100% inhibited lipid droplet deposition due to the presence of 20 uM Triacsin C), which was added to 32 wells/plate.

[1] = measured here: lipid fluorescence (Fed channel) AC50, cells fed with added oleic acid
[2] = measured here: cell number channel AC50, cells fed with added oleic acid

Structure (SMILES) | cell number change [%] | AC50 [1] | AC50 [2]
O=C(COc1ccccc1Cl)NNC(=O)Cn1[nH]c(=O)c2ccccc2c1=O | 20.7 | 11.6 µM [rising, partial curve] | –
Brc1ccccc1-c1csnn1 | -7.15 | – | –
O=C(NCCCN1CCCC1=O)c1ccc2c(=O)n(-c3ccccc3F)c(=S)[nH]c2c1 | – | 29.1 µM [rising, single point] | –
Cc1nc2ccccc2n1Cc1ccc(Cl)cc1 | -12.7 | 8.2 µM [falling, single point] | –
COCCN1C(=O)C(=O)/C(=C(/O)c2ccc(S(=O)(=O)N3CCOCC3)cc2)C1c1ccc(O)c(OC)c1 (stereo not given) | 10.1 | 0.651 µM [falling, single point] | –
Cn1c(=O)c2[nH]c(N=NNc3ccccc3F)nc2n(C)c1=O | 5.44 | – | –
CC(C)CCNC(=O)c1cccnc1Sc1ccccc1 | 7.62 | 29.1 µM [rising, single point] | –
Fc1ccc2nc(N3CCOCC3)sc2c1 | 9.88 | – | –
Cc1ccc(CNc2oc(-c3cccs3)nc2C#N)cc1 | 80.8 | – | –
COc1ccccc1CCNS(=O)(=O)c1cc2c3c(c1)CCN3C(=O)CC2 | 24.9 | – | –
CCCNC(=O)c1cc(Cl)c(NC(=O)C2=CSCCO2)cc1OC | – | – | 0.0731 µM [falling, full curve, poor fit]
C[C@]12C(=O)N(c3ccc(C(F)(F)F)cc3)C(=O)N1[C@@H]1c3ccccc3OC[C@@H]1[C@H]2c1ccccc1 | – | 6.51 µM [falling, single point] | –
Cc1cc(OCCCCN2C(=O)NC(C)(C)C2=O)cc(C)c1Cl | 67.2 | – | 20.6 µM [rising, single point]
Cc1cc(=O)oc2cc(OC(C(=O)O)c3ccccc3)ccc12 (stereo not given) | 22.8 | – | –
COc1ccc(C(=O)N2CCN(C(=O)c3ccc(-c4ccccc4)cc3)CC2)cc1OC | -26 | 2.59 µM [falling, full curve, poor fit] | –
O=C(OCCc1cc2ccccc2c(=O)o1)c1ccccc1C(F)(F)F | -16.7 | 1.16 µM [falling, single point] | 0.461 µM [falling, single point]
COc1ccc2c(c1OC)C(=O)NC(C)=C(C(=O)OC(C)(C)C)C2O (stereo not given) | – | 29.1 µM [falling, single point] | –
Cc1cc(C(=O)O)c(S(C)(=O)=O)s1 | -29.4 | 1.3 µM [falling, full curve] | 0.13 µM [falling, full curve, poor fit]
OCCCNc1cc(-c2ccnc(Nc3cccc(Cl)c3)n2)ccn1 | – | 2.31 µM [falling, partial curve] | –
NC(=O)CC[C@H](NC(=O)c1ccc(F)cc1)C(=O)OCC(=O)Nc1c(F)c(F)c(F)c(F)c1F | 32.5 | 25.9 µM [rising, single point] | –
Brc1cnc(N2CCOCC2)nc1N1CCCCC1 | – | 0.58 µM [falling, single point] | 4.61 µM [rising, partial curve]

In the list so far, these have nitrogen in an aromatic ring:
Structure (SMILES) | cell number change [%] | AC50 [1] | AC50 [2]
O=C(COc1ccccc1Cl)NNC(=O)Cn1[nH]c(=O)c2ccccc2c1=O | 20.7 | 11.6 µM [rising, partial curve] | –
Brc1ccccc1-c1csnn1 | -7.15 | – | –
O=C(NCCCN1CCCC1=O)c1ccc2c(=O)n(-c3ccccc3F)c(=S)[nH]c2c1 | – | 29.1 µM [rising, single point] | –
Cc1nc2ccccc2n1Cc1ccc(Cl)cc1 | -12.7 | 8.2 µM [falling, single point] | –
Cn1c(=O)c2[nH]c(N=NNc3ccccc3F)nc2n(C)c1=O | 5.44 | – | –
CC(C)CCNC(=O)c1cccnc1Sc1ccccc1 | 7.62 | 29.1 µM [rising, single point] | –
Fc1ccc2nc(N3CCOCC3)sc2c1 | 9.88 | – | –
Cc1ccc(CNc2oc(-c3cccs3)nc2C#N)cc1 | 80.8 | – | –
OCCCNc1cc(-c2ccnc(Nc3cccc(Cl)c3)n2)ccn1 | – | 2.31 µM [falling, partial curve] | –
Brc1cnc(N2CCOCC2)nc1N1CCCCC1 | – | 0.58 µM [falling, single point] | 4.61 µM [rising, partial curve]

More entries.

Structure (SMILES) | cell number change [%] | AC50 [1] | AC50 [2]
CCCCc1ccc(S(=O)(=O)Nc2ccc(C)c(NS(C)(=O)=O)c2)cc1 | – | 0.00461 µM [falling, full curve, poor fit] | –
Cn1c(=O)n(C)c2cc([N+](=O)[O-])c(N3CCN(S(C)(=O)=O)CC3)cc21 | 2.14 | 29.1 µM [falling, single point] | –
Cc1ccc(CN2CCC(Oc3cccc(C(=O)N(C)CCN(C)C)c3)CC2)cc1C | -9.49 | 0.103 µM [falling, full curve, poor fit] | –
CCOc1ccccc1N1CCN(C(=O)c2cc[n+]([O-])cc2)CC1 | 27 | – | –
Cc1ccc2[nH]c3c(N4CCN(Cc5ccc6c(c5)OCO6)CC4)ncnc3c2c1 | -30.1 | 2.06 µM [falling, full curve] | 0.92 µM [falling, full curve]
COc1ccccc1N(CC(O)CN1C(C)CCCC1C)S(=O)(=O)c1ccccc1 (stereo not given) | 25 | – | –
CC(=O)c1ccc(NC(=O)c2ccc(-n3cnnn3)cc2)cc1 | 12.5 | – | –
O=S(=O)(NC1CC(NS(=O)(=O)OCC(Cl)(Cl)Cl)C2CCCCC12)OCC(Cl)(Cl)Cl (stereo not given) | -26.5 | 29.1 µM [falling, single point] | –
CCCCCCCSc1nsc(N)n1 | -38.2 | 23.1 µM [falling, partial curve, poor fit] | 20.6 µM [falling, single point]
O=C(NNc1c2ccccc2nc2ccccc12)c1cc2ccccc2cc1O | -73.1 | 4.61 µM [falling, full curve] | 5.17 µM [falling, full curve]
O=Cc1cc(Cl)ccc1OCCN1CCC(Cc2ccccc2)CC1 | -25.8 | 29.1 µM [falling, single point] | –
CCc1noc(C)c1C(=O)Nc1cc(S(=O)(=O)N2CCOCC2)ccc1OC(C)C | 114 | – | 10.3 µM [rising, partial curve]
O=C(COC(=O)/C=C/c1nc2ccccc2s1)Nc1ccccc1Oc1ccccc1 | 18.4 | 18.4 µM [rising, partial curve] | –
Cc1cc(S(=O)(=O)n2[nH]c(=O)c(CCO)c2C)c(Cl)cc1Cl | 5.33 | 0.082 µM [rising, full curve, poor fit] | –
Cc1ccc(C(=O)C(C)OC(=O)CN2C(=O)NC3(CCCC3)C2=O)cc1 (stereo not given) | – | – | 4.61 µM [rising, single point]
CC1(C)Cc2cccc(OCC(=O)OCc3nnc(-c4ccccc4)o3)c2O1 | 8.57 | 2.06 µM [rising, partial curve] | 6.51 µM [falling, single point]
CNC(=S)N1N=C(c2ccc(OC)cc2)CC1c1ccc(N(C)C)cc1 (stereo not given) | 30.1 | – | 0.92 µM [rising, full curve, poor fit]
CCCn1cccc(C(=O)Nc2ccc(OC)cc2)c1=O | 13.9 | 0.651 µM [falling, single point] | –
CCN1CCN(C2=CC3=CC(=C(C#N)C#N)CCC3CC2)CC1 (stereo not given) | -97.6 | 0.411 µM [falling, full curve] | 1.64 µM [falling, full curve]
O=C(NCc1ccco1)C(C(=O)c1ccc(F)cc1)n1ccccc1=O (stereo not given) | 33.3 | – | 29.1 µM [rising, single point]
Cc1onc(-c2c(Cl)cccc2Cl)c1C(=O)N1CCSCC1 | -44.8 | 16.4 µM [falling, partial curve] | 14.6 µM [falling, single point]

Record cards, from the list above. Values in the order: cell number change [%]	AC50 [1]	AC50 [2]
`Cn1c(=O)n(C)c2cc([N+](=O)[O-])c(N3CCN(S(C)(=O)=O)CC3)cc21` reads 2.14	29.1 µM [falling, single point]	–
`CCCCCCCSc1nsc(N)n1` reads -38.2	23.1 µM [falling, partial curve, poor fit]	20.6 µM [falling, single point]

Next entries follow:

Structure (SMILES) | cell number change [%] | AC50 [1] | AC50 [2]
CCN(Cc1ccccc1)Cc1c(C)[nH]c2c(C)c(C)ccc2c1=O | 22.2 | – | –
O=C(CCCC(=O)N(c1ccc2c(c1)OCCO2)C(C(=O)NC1CCCCC1)c1ccc(Cl)cc1)Nc1ccccn1 (stereo not given) | – | – | 0.326 µM [rising, single point]
CC1CN(C(=O)C2CC(=O)N(c3ccc(Cl)cc3)C2)CC(C)O1 (stereo not given) | 28.2 | – | 0.231 µM [rising, full curve, poor fit]
CCOc1cc(C(=O)OCc2ccc(C(=O)OC)o2)cc(Br)c1OC | 3.69 | – | –
COc1c[nH]n(C2CCCCC2)c(=O)c1=O | -1.12 | 0.291 µM [falling, full curve, poor fit] | –
Cc1ccc2c(CN3CCCCC3C)cc(=O)oc2c1C (stereo not given) | – | 29.1 µM [falling, single point] | 2.06 µM [rising, partial curve]
CCOC(=O)C1=C(C)NC2=C(C(=O)C(C(=O)OCC)C(c3cccc(OC)c3)C2)C1c1ccccn1 (stereo not given) | 22.5 | 2.06 µM [falling, partial curve] | 0.731 µM [falling, full curve]
Cc1ccc(-c2nc(SCC(N)=O)c(C#N)c3c2CCCC3)cc1 | 127 | 7.31 µM [rising, partial curve] | 7.31 µM [rising, partial curve]
COc1cccc(OCC(O)CN2C(C)CCCC2C)c1 (stereo not given) | -0.283 | 0.058 µM [falling, full curve] | –
Cc1noc(-c2ccccc2OC(=O)c2ccccc2)n1 | 4.05 | 0.00651 µM [falling, full curve, poor fit] | –
O=C1c2ccccc2NC(c2cn[nH]c2-c2ccccc2)N1O (stereo not given) | -0.244 | 10.3 µM [rising, partial curve] | –
O=C(NCC1CCCO1)c1cccc(NC(=O)c2ccco2)c1 (stereo not given) | 0.809 | – | –
CC1CN(CCOc2ccc(F)cc2)CC(C)O1 (stereo not given) | 11.7 | 29.1 µM [rising, single point] | –
Cc1ccc(-c2nc(N)s[n+]2-c2ccccc2)cc1 | -83.7 | 29.1 µM [falling, single point] | 23.1 µM [falling, single point]
COCCn1c(SCC(=O)N2CCOCC2)nnc1-c1ccco1 | -13.2 | – | –
Cc1ccc(C)c(NC(=O)c2cc(C)nc3ccccc23)c1 | 11.1 | 3.66 µM [rising, full curve] | –
COc1cc(C)c(C(C)C)cc1S(=O)(=O)n1cnc(C)c1 | 35.3 | – | 29.1 µM [rising, single point]
Cc1nc2cc(Cl)c(Cl)cc2n1-c1ccccn1 | -20.2 | 4.11 µM [falling, partial curve, poor fit] | –
COc1ccc(CNC(=O)Cn2cccc2C(=O)c2ccccc2C)cc1 | – | 0.58 µM [rising, single point] | –
O=C(CSc1cccc2cccnc12)Nc1cccc(S(=O)(=O)N2CCOCC2)c1 | 35.8 | – | 29.1 µM [rising, single point]
N#Cc1nc(-c2ccccc2F)oc1NC1CCCCC1 | -3.49 | 0.00461 µM [rising, full curve, poor fit] | –
